Residue numbers refer to the chain shown, from its start. These are yes or no findings as the source states them, for the method shown. Some binding calls cover weakened binding; strength is not graded here. Where a sequence is shown, tags or fusion partners need not be part of it.
Tests used:
[1] = target: T1, MEIG1 W50A/Y68A double mutant, two-hybrid fusion from MEIG1/pGBKT7 (mouse) (UniProt Q61845); assay: two-hybrid; AH109 co-transformed with PACRG/pGADT7 and wild-type or mutant MEIG1/pGBKT7; binding strength by alpha-galactosidase reporter activity in culture supernatant (PNP-alpha-Gal, 30 °C, 3 h, OD410); p53/pGBKT7 with large T antigen/pGADT7 as positive control
T1 sequence: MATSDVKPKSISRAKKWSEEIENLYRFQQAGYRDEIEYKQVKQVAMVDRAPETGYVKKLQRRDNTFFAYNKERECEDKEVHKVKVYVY

Protein sequences, listed by entry. Tags and fused reporters are not part of them.
UniProt Q9DAK2: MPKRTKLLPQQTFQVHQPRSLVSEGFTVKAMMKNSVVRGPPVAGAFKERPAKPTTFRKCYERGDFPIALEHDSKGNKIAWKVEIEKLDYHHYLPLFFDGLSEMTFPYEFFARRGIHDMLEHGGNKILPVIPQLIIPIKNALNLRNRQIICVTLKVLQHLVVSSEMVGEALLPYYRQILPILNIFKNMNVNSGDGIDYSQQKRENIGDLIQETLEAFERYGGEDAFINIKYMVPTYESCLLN

[2] = target: T2, MEIG1 K57E, two-hybrid fusion from MEIG1/pGBKT7 (mouse) (UniProt Q61845); assay: as above
T2 sequence: T1 sequence with A50W, K57E, A68Y

[3] = target: T3, MEIG1 W50A, two-hybrid fusion from MEIG1/pGBKT7 (mouse) (UniProt Q61845); assay: as above
T3 sequence: T1 sequence with A68Y

[4] = target: T4, MEIG1 F66A, two-hybrid fusion from MEIG1/pGBKT7 (mouse) (UniProt Q61845); assay: as above
T4 sequence: T1 sequence with A50W, F66A, A68Y

[5] = target: T5, MEIG1 wild type, two-hybrid fusion from MEIG1/pGBKT7 (mouse) (UniProt Q61845); assay: as above
T5 sequence: T1 sequence with A50W, A68Y

[6] = target: T1, MEIG1 W50A/Y68A double mutant, two-hybrid fusion from MEIG1/pGBKT7 (mouse); assay: two-hybrid; AH109 co-transformed with PACRG/pGADT7 and wild-type or mutant MEIG1/pGBKT7; growth on drop-out medium lacking tryptophan, leucine and histidine (His3 reporter); empty pGADT7 as negative control
[7] = target: T2, MEIG1 K57E, two-hybrid fusion from MEIG1/pGBKT7 (mouse); assay: as above
[8] = target: T3, MEIG1 W50A, two-hybrid fusion from MEIG1/pGBKT7 (mouse); assay: as above
[9] = target: T4, MEIG1 F66A, two-hybrid fusion from MEIG1/pGBKT7 (mouse); assay: as above
[10] = target: T5, MEIG1 wild type, two-hybrid fusion from MEIG1/pGBKT7 (mouse); assay: as above

Measured: binding

Parkin co-regulated gene protein (PACRG), two-hybrid fusion from PACRG/pGADT7 (from UniProt Q9DAK2 1-241)
binds: all assays above

Reference: PMC4698733
